From PubChem BioAssay AID1259415 (National Center for Advancing Translational Sciences (NCATS), 2018)
Hit rate of the full screen: of about 410,000 compounds, about 18,000 (4.4%) were called active. The shares of active, inactive and inconclusive entries below differ from those in the screen. Rule as the data show it: active = activity change below about -60%; inconclusive = no clear call, values can overlap the other calls; inactive = above about -39%.

Assay: qHTS Assay for inhibitors of the human cytomegalovirus (HCMV)
Conditions: HFF cells, HCMV-luciferase reporter, 72 h; at 57.5 µM; stronger effect = lower value
Outline: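 Cell-based, HFFs, 1000 cells/well, 16 h 37C; cpds in DMSO + HCMV-luc, MOI 1 PFU/cell; 72 h 37C; OneGlo luminescence after 5 min RT; norm. to buffer vs Salinomycin 10uM.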
% is scaled to controls: 0 for no effect and ±100 for the full control effect.

Compound | activity change, negative = inhibition
CCc1ccc(NC(=O)CSc2nccn2-c2ccc(F)cc2)cc1 | active: -65.7%
COC(=O)[C@@]1(Cc2ccc(F)cc2)[C@H]2c3cc(C(=O)N4CCCC4)n(C)c3C[C@H]2CN1C(=O)c1ccccc1 | inconclusive: -47.9%
CN(Cc1ccccc1)C(=O)c1cc(=O)[nH]c2ccccc12 | inconclusive: -56.5%
CCN1C(=O)CC(c2ccc(OC(C)C)cc2)C1=O (centres undefined) | inactive: 71.4%
Cc1ccc(C(=O)Nc2sc(C)c(-c3ccccc3)c2C(N)=O)cc1[N+](=O)[O-] | inconclusive: -56.5%
CCSc1nc2n(n1)C(c1ccc(Cl)cc1Cl)C(C(=O)Nc1ccccc1C)=C(C)N2 (centres undefined) | active: -90.6%
Cc1ccc(-n2ccn(CC(=O)NCCc3ccccc3)c(=O)c2=O)cc1C | inconclusive: -42.8%
Cc1nc2nc(SCC(=O)Nc3cccc(F)c3)[nH]c2cc1Br | inconclusive: -46.7%
CCC(=O)OCCNc1cc(Sc2nc3ccccc3s2)c2nonc2c1[N+](=O)[O-] | inactive: 68.6%
CNC(=S)NC12CC3CC(CC(C3)C1)C2 | inconclusive: -46%
CCOC(=O)[C@]12Cc3cc(OC)ccc3[C@H]1N(C(C)C)C(=O)c1ccccc12 | active: -109%
COc1ccc(NC(C)=O)cc1CP(=O)(c1ccccc1)c1ccccc1 | inactive: -34.1%
COc1cc(/C=N/NC(=O)c2ccccc2Cl)ccc1Oc1ccc([N+](=O)[O-])cn1 | inconclusive: -49.7%
COc1ccc(C(=O)N2Cc3cnnn3-c3ccccc3C2C#N)cc1 (centres undefined) | inactive: -7.74%
Cn1nnnc1SCc1nc2scc(-c3ccccc3)c2c(=O)[nH]1 | inactive: 12.3%
Cc1ccccc1NC(=O)Cc1c(O)c2ccccc2[nH]c1=O | inactive: 10.8%
CC(Oc1ccccc1)C(=O)Nc1ccc(S(=O)(=O)NCC2CCCO2)cc1 (centres undefined) | inconclusive: -58.5%
Cc1ccccc1Cn1c(SCc2ccc(C(=O)NC3CCCCC3)cc2)nc2ccncc21 | inactive: 11.1%
O=C(NC1CCCCC1)[C@H](CSCc1ccccc1)N1Cc2ccccc2C1=O | active: -60.4%
CCn1c(/C=N/Nc2ccc(C(=O)O)cc2)nc2ccccc21 | inactive: 52.7%
COc1ccc(Cc2n[nH]c(=S)n2-c2ccc3c(c2)OCCO3)cc1 | inconclusive: -48.7%
O=C(NCCc1csc(-c2cccnc2)n1)c1cccc(Cl)c1 | inconclusive: 0%
O=C(N1CCOCC1)N1c2ccccc2Sc2ccccc21 | inconclusive: -48.4%
Cc1ccc(CN2CCC(N3CCC(C(=O)NCC4CCCO4)CC3)CC2)o1 (centres undefined) | inconclusive: -41.1%
Cc1ccccc1Cn1ccc(NC(=O)c2cc3nc(-c4ccco4)cc(C(F)(F)F)n3n2)n1 | inactive: 66.6%
O=C(CCNC(=O)c1ccc([N+](=O)[O-])cc1)Nc1ccccc1N1CCCC1 | inconclusive: -43.3%
O=C(CSc1n[nH]c(-c2ccc(S(=O)(=O)NC3CCCCC3)cc2)n1)N1CCCC1 | active: -61.2%

Compound | activity change, negative = inhibition
Cc1c(C)n(CCN(C)C)c2ccc(C(=O)OCCN(C)C)cc12 | inactive: -9.88%
CCOc1ccc(-c2nn(-c3ccccc3)cc2C2NC(=O)NC(C)=C2C(=O)OC(C)C)cc1 (centres undefined) | active: -67.4%
NC(=O)c1nsc(C(=O)N(c2cccc(F)c2)C(C(=O)NCC2CCCO2)c2c[nH]c3ccccc23)c1N (centres undefined) | inactive: 41.2%
CSc1nc(Nc2ccc(F)cc2)cc(-c2ccccc2)n1 | inconclusive: -42.8%
CCOC(=O)c1ccc(-n2cccc2/C=C2\NC(=O)NC2=O)cc1 | inconclusive: -53.2%
CCOc1ccc(/C=C2\C(=O)c3ccccc3OC2c2ccccc2)cc1 (centres undefined) | active: -99%
O=c1c2c(nc3nc(NCc4cccc(Cl)c4)[nH]n13)CCC2 | inconclusive: -45.4%
CC(=O)Nc1ccc(N2C(=O)CC(N3CCSCC3)C2=O)cc1 (centres undefined) | inactive: -24.7%
O=C(CN1CCN(c2cccc(C(F)(F)F)c2)CC1)N(C1CC1)C1CCS(=O)(=O)C1 (centres undefined) | inconclusive: -52.8%
CCSc1nnc(NC(=O)CSc2nc3c(c(=O)n2C)SC(C)C3)s1 (centres undefined) | active: -85.5%
CC(=O)c1cccc(NC(=O)COC(=O)c2ccccc2C)c1 | inconclusive: -47.3%
CC(C)CN(C(=O)COC(=O)CCSc1ccc(Cl)cc1)c1c(N)n(Cc2ccccc2)c(=O)[nH]c1=O | inconclusive: -51.1%
CCc1cc2c(CN3CCN(Cc4ccccc4)CC3)cc(=O)oc2cc1O | inactive: -39.5%
CCN1C(=O)c2ccccc2Sc2ccc(NC(=O)N3CCN(c4cc(C)ccc4C)CC3)cc21 | active: -61%
CCCCOc1ccc(C(=O)Nc2ccc(-c3cc4ccccc4oc3=O)cc2)cc1 | inconclusive: -42.9%
COc1ccc([C@@]2(C(C)C)ON(c3ccccc3C(F)(F)F)C2=O)cc1 | inconclusive: -57.2%
COc1cc(C2NC(=O)N(C)C3=C2C(=O)CCC3)cc(OC)c1OC (centres undefined) | inactive: 8.38%
CC(C)c1ccc(OCc2nnc(SCC(=O)N3CCCCC3)o2)cc1 | inconclusive: -42.7%
O=C(NCc1ccc2c(c1)OCO2)c1ccc2c(c1)N(Cc1ccccc1F)C(=O)c1ccccc1S2 | inactive: -8.26%
CN(CC(=O)Nc1ccc(Cl)c(C(F)(F)F)c1)C(=O)c1cccc2cccnc12 | inconclusive: -42.1%
Fc1cccc(Cl)c1Cn1nnc2c(NCc3ccncc3)ncnc21 | inconclusive: -46.2%
CCC(=O)C1=C(c2ccc(F)cc2)N(C(=O)CC)n2cnnc2S1 | active: -81.7%
COC(=O)C1C2CC(=O)C(C2)C1C(=O)OC (centres undefined) | inactive: -13.9%
COc1cccc(NC(=O)c2ccc3nc(C)c(N(C)Cc4ccc(NC(C)=O)cc4)n3c2)c1 | inactive: 1.58%
CCCOc1ccc(-c2cccc(NS(=O)(=O)c3ccccc3)c2)nn1 | inconclusive: -53.2%
C=CCNC(=S)NC1CC(C)(C)NC(C)(C)C1 | inactive: 5.44%
O=C(CSc1nc2ccccc2n1Cc1ccc(Cl)cc1)N/N=C/c1ccc(C(=O)O)cc1 | inconclusive: -51.8%

An excerpt of these results, as labelled records:
COc1cc(C2NC(=O)N(C)C3=C2C(=O)CCC3)cc(OC)c1OC (centres undefined)
  activity change, negative = inhibition: inactive: 8.38%
CC(C)c1ccc(OCc2nnc(SCC(=O)N3CCCCC3)o2)cc1
  activity change, negative = inhibition: inconclusive: -42.7%
O=C(NCc1ccc2c(c1)OCO2)c1ccc2c(c1)N(Cc1ccccc1F)C(=O)c1ccccc1S2
  activity change, negative = inhibition: inactive: -8.26%
